The values that follow come from the supplement of paper PMC12889115.

Some of the results follow. These are raw signals, not scaled to a control.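 In the initial screen, polymyxin B was used at a concentration that permeabilizes Salmonella's outer membrane but not its inner membrane. Maximum growth was set by DMSO wells with or without polymyxin B. Since plates varied, data were ranked per plate, and compounds giving the lowest OD600 advanced as hits.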

This assay relates to Salmonella enterica serovar Typhimurium SL1344. Kind of assay: bacterial growth OD600 after 18 h with compound and polymyxin B; higher = more bacterial growth (less inhibition). Particulars: 50 µM, Mueller-Hinton broth.

In the case of `COCCN(CC1CCN(Cc2ccccc2F)CC1)C(=O)Cc1c(C)noc1C`, under “polymyxin B 1 µg/mL”, the “bacterial growth OD600” value was 1.2.

Regarding `Cc1c(C(=O)NCCN2CCOCC2)cnn1-c1ncc2c(n1)-c1ccccc1SC2`, the “bacterial growth OD600” value (polymyxin B 0.75 µg/mL) was determined as 0.831.

For the compound `CN(Cc1ccc(F)cc1)C(=O)c1coc(COc2cccc(F)c2)n1`, the “bacterial growth OD600” value (polymyxin B 1 µg/mL) stood at 0.784.

On to `COCCC(=O)N1CCC(Oc2ccc(C(=O)N3CCCC(CCCO)C3)cc2)CC1` (stereo unspecified), for which, under “polymyxin B 1 µg/mL”, the “bacterial growth OD600” value stood at 1.06.

In the case of `c1ccc(Cc2cn[nH]c2C2CCCN(Cc3ccco3)C2)cc1` (stereo unspecified), the “bacterial growth OD600” value (polymyxin B 0.75 µg/mL) is 0.865.

`CCCCc1nc2cc(C(=O)NCc3nc4ccccc4o3)ccc2o1`: the “bacterial growth OD600” value (polymyxin B 0.75 µg/mL) was determined as 0.526.

For `COC(=O)CCCC(=O)N1CCCC(CCc2ccc(F)cc2F)C1` (stereo unspecified), where the note is “polymyxin B 0.75 µg/mL”, the “bacterial growth OD600” value is 0.409.

Regarding `CCOc1ccccc1CNC(C)c1cnn(-c2cccc(F)c2)c1C` (stereo unspecified), the “bacterial growth OD600” value (polymyxin B 0.75 µg/mL) was 0.864.

Regarding `C=CCCC(=O)NC1CC(C)(C)Cc2c1cnn2-c1ccc(OC)cc1` (stereo unspecified), the “bacterial growth OD600” value (polymyxin B 1 µg/mL) stood at 0.978.

`COc1cccc(CC2(CO)CCCN(Cc3c[nH]nc3-c3cc(C)ccc3C)C2)c1` (stereo unspecified): the “bacterial growth OD600” value (polymyxin B 1 µg/mL) amounted to 0.8.

`CCN1CC(CNC(=O)c2cc(NC(=O)COC)c3c(c2)ncn3CCc2ccccc2)CC1=O` (stereo unspecified): under “polymyxin B 0.75 µg/mL”, the “bacterial growth OD600” value stood at 1.08.

For `COC(=O)C(CCSC)NC(=O)c1cc(COc2ccc(C)c(C)c2)on1` (stereo unspecified), the “bacterial growth OD600” value (polymyxin B 0.75 µg/mL) was 0.006.

For `Cc1ccc(CN(C)C(=O)c2coc(COc3cccc(F)c3F)n2)cc1`, under “polymyxin B 1 µg/mL”, the “bacterial growth OD600” value was found to be 0.993.

Take `COc1ccc(C(CC(=O)N2CCNC(=O)C2)c2ccccc2)cc1` (stereo unspecified): the “bacterial growth OD600” value (polymyxin B 1 µg/mL) was found to be 0.81.

`CCN1C(=O)CC(CC(=O)N(C)Cc2ccc3nccnc3c2)(c2cccc(C(F)(F)F)c2)C1=O` (stereo unspecified): where the note is “polymyxin B 0.75 µg/mL”, the “bacterial growth OD600” value amounted to 0.643.

`c1ccc(CN2CCCC3(CCCN(c4nncc(-c5ccccc5)n4)C3)C2)cc1` (stereo unspecified): the “bacterial growth OD600” value (polymyxin B 0.75 µg/mL) was determined as 0.223.

In the case of `CCOC(=O)C1(CCCc2ccccc2)CCCN(C(=O)c2c(C)nc3ncccn23)C1` (stereo unspecified), the “bacterial growth OD600” value (polymyxin B 1 µg/mL) is 1.17.

For `C=CCCC(=O)NC1CC(C)(C)Cc2nc(N3CCOCC3)ncc21` (stereo unspecified), the “bacterial growth OD600” value (polymyxin B 1 µg/mL) is 1.15.

On to `O=C(c1cnc[nH]1)N1CCC(C2CCN(Cc3cccc(F)c3F)CC2)C1` (stereo unspecified), for which, under “polymyxin B 0.75 µg/mL”, the “bacterial growth OD600” value came to 0.885.

For the compound `COc1cc(Cl)cc(CN2CCCC(CCC(=O)NC3CC3)C2)c1OC` (stereo unspecified), where the note is “polymyxin B 1 µg/mL”, the “bacterial growth OD600” value came to 0.91.

Take `COCCN(CC1CCN(Cc2ccccc2F)CC1)C(=O)c1ccc(C)cc1`: the “bacterial growth OD600” value (polymyxin B 1 µg/mL) came out at 1.18.
